Results reported in patent US20190192524A1, “Modulators of Caspase-6” (The University of British Columbia, priority 2014, published 2019).
Results are given in words; binding and its absence hold for the method and conditions named. In cells and extracts the contact can be indirect. Some results given as binding are weak or reduced against the parent protein; the word gives no strength. Sequences can lack the tags named with a protein.

Chains of the proteins cited; added tags and fusions are not shown. Lines headed by an entry give the natural chain unless they say otherwise; changes in a name come on top.
UniProt P42858: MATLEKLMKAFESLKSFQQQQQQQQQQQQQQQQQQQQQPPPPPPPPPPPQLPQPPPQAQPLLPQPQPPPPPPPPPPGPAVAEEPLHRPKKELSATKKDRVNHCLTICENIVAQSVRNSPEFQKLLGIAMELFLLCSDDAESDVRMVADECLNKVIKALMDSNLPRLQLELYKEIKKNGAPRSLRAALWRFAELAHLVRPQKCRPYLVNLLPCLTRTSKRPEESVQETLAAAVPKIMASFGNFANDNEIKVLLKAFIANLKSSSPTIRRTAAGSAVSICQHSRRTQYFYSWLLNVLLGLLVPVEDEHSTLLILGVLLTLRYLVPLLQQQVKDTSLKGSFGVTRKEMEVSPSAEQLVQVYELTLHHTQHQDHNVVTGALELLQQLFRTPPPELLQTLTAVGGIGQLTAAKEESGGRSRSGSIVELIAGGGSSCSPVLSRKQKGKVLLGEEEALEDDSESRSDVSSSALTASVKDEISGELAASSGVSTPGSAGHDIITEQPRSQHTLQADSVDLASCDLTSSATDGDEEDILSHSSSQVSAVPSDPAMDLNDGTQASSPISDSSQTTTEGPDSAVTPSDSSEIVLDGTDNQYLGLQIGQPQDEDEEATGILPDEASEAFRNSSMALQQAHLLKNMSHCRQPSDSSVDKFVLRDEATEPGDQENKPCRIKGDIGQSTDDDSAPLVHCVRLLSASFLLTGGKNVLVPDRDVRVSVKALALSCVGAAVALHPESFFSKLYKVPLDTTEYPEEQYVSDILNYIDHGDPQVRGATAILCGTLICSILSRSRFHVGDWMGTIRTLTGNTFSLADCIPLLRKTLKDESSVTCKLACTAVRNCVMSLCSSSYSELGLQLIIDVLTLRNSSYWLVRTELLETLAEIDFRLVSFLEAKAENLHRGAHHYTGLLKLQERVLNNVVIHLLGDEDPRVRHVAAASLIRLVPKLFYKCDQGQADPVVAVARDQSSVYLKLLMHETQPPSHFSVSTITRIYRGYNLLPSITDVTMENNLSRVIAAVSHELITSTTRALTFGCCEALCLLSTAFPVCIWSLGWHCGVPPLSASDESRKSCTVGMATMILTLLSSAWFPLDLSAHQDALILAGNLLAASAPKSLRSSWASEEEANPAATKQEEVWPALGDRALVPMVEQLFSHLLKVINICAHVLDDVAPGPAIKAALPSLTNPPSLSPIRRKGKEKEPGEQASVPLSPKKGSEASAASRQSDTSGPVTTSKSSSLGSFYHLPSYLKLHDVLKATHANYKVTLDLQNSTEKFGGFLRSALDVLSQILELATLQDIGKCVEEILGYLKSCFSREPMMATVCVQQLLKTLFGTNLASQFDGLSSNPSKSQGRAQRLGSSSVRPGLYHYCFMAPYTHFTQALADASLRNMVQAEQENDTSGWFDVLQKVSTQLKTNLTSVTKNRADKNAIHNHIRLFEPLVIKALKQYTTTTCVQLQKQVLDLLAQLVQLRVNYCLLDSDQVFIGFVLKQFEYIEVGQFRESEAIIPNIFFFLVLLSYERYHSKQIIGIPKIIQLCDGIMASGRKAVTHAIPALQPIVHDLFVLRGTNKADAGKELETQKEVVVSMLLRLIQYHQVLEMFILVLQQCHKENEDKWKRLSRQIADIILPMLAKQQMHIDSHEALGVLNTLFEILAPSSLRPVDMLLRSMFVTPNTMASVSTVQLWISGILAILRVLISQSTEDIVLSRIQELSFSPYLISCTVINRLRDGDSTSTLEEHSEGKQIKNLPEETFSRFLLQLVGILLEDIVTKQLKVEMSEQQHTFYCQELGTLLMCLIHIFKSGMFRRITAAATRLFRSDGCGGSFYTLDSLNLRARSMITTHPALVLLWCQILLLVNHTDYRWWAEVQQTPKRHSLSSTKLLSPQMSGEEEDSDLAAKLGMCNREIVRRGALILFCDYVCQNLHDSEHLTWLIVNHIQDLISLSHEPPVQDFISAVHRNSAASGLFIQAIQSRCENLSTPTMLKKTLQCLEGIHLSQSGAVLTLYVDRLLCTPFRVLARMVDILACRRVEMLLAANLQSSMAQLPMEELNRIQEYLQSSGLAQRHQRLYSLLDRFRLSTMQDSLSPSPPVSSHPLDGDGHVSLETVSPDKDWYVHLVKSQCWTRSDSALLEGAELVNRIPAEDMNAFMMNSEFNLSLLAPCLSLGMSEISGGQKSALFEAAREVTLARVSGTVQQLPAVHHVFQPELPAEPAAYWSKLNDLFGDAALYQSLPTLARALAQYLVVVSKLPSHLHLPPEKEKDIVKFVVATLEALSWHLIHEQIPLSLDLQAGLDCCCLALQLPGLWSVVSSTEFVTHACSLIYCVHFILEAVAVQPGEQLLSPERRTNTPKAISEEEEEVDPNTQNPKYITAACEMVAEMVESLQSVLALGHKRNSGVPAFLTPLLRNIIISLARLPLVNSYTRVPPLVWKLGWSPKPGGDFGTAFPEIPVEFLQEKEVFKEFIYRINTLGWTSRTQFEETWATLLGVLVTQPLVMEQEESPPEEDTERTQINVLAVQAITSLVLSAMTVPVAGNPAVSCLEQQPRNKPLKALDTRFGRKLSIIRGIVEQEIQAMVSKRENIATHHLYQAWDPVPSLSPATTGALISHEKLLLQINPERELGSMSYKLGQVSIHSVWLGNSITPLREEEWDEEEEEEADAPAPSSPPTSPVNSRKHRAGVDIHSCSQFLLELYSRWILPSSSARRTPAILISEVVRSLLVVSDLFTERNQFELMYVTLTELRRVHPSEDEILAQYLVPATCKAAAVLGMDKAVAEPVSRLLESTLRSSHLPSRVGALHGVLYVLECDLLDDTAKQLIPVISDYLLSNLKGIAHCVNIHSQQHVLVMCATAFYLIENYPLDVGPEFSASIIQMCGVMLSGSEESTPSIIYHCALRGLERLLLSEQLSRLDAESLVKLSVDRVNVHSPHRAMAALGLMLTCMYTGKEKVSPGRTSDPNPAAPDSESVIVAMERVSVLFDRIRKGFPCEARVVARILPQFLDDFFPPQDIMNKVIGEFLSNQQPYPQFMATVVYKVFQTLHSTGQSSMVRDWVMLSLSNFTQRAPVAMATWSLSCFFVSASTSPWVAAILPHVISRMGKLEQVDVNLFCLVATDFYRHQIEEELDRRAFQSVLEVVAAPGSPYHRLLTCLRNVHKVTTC

Assays:
[1] = target: 1212 amino acid HTT fragment (wt htt, amino acids 1-1212 of huntingtin, N-terminal His-tag) (human) (UniProt P42858); experiment: co-immunoprecipitation with a caspase-6 antibody from co-transfected COS-7 cell lysates, Western blot with Htt antibody 2166
[2] = target: 1212 amino acid HTT fragment (wt htt, amino acids 1-1212 of huntingtin, N-terminal His-tag) (human) (UniProt P42858); experiment: co-immunoprecipitation with a caspase-6 antibody from co-transfected COS-7 cell lysates, Western blot

- binding [1]: binds
- binding [2]: binds
B1: full-length human caspase-6 (amino acids 1-293 of human caspase-6 with C-terminal DDK-tag) (enzyme)
chain: MSSASGLRRGHPAGGEENMTETDAFYKREMFDPAEKYKMDHRRRGIALIFNHERFFWHLTLPERRGTCADRDNLTRRFSDLGFEVKCFNDLKAEELLLKIHEVSTVSHADADCFVCVFLSHGEGNHIYAYDAKIEIQTLTGLFKGDKCHSLVGKPKIFIIQACRGNQHDVPVIPLDVVDNQTEKLDTNITEVDAASVYTLPAGADFLMCYSVAEGYYSHRETVNGSWYIQDLCEMLGKYGSSLEFTELLTLVNRKVSQRRVDFCKDPSAIGKKQVPCFASMLTKKLHFFPKSNTRTPLEQKLISEEDLAAMISWITRDDDDKV
